From PMC6191443
No constants are given. Whether binding was seen depends on the method and setting. Some binding calls cover weakened binding; strength is not graded here.

Biological target: T1, TRADD overexpressed in HEK293T cells, Q15628
T1 chain: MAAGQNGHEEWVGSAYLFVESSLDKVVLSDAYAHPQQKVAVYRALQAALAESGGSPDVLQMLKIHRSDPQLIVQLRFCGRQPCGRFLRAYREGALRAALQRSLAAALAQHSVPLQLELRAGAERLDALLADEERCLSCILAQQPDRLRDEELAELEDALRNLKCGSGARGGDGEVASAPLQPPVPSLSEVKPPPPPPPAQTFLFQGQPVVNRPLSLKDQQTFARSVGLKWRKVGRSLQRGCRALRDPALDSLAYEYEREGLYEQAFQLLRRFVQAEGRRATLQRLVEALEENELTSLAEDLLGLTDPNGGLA
Assay: non-reducing SDS-PAGE and Western blot
Conditions: remark: other sources report otherwise

binding: binds
B1: TRADD overexpressed in HEK293T cells, Q15628 1-312 (protein)
chain: T1 chain
